Data as given in the supplement of paper PMC10849652.
This is one part of the list. Residues, ends and D or L forms follow the SMILES beside them. *: point of attachment. Cbz = O=C(OCc1ccccc1)*

Protein sequences, listed by entry. Tags and fused reporters are not part of them. Lines headed by an entry give the natural chain unless they say otherwise; changes in a name come on top.
UniProt P49448: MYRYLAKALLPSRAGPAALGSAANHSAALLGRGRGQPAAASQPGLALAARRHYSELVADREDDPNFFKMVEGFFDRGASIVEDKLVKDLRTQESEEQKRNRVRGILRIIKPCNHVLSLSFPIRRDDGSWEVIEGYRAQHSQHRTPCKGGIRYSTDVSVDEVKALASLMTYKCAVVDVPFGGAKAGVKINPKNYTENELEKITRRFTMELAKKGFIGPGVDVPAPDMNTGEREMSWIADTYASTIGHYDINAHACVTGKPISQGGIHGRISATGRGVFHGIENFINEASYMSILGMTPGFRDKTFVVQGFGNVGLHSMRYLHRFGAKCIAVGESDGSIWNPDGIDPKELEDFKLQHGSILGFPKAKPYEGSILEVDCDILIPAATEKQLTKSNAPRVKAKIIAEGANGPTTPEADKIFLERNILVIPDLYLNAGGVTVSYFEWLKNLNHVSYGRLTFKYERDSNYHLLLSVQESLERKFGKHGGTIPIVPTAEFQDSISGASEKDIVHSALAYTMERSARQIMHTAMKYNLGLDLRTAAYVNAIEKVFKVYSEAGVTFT
UniProt Q08379: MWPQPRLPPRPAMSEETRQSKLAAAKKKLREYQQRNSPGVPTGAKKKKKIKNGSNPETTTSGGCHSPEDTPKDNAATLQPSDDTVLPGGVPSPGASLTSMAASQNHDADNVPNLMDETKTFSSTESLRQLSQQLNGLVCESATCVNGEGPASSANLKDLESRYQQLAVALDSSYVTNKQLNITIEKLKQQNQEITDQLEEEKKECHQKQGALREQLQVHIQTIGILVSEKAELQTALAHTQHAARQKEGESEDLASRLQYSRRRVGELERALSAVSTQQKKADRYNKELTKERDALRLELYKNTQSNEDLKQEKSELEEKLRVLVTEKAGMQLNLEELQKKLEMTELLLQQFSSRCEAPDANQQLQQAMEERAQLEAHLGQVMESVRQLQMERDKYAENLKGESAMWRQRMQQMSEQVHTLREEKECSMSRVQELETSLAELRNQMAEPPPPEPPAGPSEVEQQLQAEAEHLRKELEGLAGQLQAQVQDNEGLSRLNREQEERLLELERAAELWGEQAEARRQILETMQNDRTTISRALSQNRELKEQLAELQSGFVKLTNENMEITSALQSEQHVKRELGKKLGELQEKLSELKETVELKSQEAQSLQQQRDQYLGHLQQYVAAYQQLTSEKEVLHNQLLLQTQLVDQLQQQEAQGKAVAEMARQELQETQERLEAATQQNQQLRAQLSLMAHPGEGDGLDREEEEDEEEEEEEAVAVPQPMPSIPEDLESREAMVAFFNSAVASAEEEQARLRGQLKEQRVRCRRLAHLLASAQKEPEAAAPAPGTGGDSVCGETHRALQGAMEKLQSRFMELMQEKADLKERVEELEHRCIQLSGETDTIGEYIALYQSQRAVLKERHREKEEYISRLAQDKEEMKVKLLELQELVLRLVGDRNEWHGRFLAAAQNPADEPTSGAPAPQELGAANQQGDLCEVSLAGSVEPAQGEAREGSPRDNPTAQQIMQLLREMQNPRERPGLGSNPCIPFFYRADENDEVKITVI
UniProt Q9UKJ3: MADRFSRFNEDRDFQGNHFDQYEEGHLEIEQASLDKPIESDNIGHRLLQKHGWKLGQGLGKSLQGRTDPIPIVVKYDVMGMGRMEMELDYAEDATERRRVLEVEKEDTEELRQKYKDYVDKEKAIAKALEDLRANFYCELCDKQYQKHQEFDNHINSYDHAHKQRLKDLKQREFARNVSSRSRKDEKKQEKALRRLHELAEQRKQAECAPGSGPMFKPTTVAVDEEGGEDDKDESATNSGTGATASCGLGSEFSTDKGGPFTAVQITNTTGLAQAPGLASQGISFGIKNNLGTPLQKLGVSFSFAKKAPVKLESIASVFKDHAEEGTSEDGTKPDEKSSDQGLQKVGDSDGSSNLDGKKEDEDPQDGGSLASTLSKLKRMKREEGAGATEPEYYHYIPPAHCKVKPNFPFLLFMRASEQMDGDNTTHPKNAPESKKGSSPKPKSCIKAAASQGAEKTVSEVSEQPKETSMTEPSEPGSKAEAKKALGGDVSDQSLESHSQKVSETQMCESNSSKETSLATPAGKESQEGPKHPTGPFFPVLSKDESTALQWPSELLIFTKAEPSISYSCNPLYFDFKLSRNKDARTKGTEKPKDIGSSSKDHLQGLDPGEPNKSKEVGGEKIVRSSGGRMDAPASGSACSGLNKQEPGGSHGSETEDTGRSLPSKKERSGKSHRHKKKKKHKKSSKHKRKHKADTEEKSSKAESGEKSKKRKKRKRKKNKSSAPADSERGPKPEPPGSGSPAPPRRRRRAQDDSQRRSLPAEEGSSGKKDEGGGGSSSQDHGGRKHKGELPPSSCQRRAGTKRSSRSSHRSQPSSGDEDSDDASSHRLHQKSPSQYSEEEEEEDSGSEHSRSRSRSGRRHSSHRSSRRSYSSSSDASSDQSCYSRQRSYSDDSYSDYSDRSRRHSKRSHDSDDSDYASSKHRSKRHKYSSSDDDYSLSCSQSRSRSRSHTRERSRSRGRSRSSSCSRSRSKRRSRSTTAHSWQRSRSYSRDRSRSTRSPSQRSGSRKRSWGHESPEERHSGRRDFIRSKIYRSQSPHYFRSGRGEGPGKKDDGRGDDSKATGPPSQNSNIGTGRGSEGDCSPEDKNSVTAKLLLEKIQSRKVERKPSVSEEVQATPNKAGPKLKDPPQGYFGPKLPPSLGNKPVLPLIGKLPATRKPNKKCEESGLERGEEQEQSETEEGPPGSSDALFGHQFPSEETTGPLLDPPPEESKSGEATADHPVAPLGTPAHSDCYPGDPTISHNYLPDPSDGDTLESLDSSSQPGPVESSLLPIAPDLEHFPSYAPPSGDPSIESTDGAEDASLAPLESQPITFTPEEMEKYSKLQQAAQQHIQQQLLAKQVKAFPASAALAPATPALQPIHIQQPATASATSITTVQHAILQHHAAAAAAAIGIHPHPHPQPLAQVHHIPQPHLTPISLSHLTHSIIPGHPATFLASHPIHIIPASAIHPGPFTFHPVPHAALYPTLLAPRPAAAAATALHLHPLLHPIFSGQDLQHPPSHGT
UniProt Q9BXV9: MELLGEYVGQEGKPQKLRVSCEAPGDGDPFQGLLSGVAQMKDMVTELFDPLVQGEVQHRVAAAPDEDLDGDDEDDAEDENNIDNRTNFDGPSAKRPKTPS
UniProt P36959: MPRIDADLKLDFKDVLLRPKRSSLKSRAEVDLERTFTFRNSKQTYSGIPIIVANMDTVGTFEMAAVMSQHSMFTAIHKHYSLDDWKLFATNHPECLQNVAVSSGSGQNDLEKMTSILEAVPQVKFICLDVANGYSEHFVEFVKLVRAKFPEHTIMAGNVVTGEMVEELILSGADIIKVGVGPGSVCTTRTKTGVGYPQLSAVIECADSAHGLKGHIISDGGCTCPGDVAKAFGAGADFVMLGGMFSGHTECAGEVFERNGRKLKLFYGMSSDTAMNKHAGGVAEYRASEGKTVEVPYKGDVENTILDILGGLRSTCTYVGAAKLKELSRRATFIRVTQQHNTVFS
UniProt P49840: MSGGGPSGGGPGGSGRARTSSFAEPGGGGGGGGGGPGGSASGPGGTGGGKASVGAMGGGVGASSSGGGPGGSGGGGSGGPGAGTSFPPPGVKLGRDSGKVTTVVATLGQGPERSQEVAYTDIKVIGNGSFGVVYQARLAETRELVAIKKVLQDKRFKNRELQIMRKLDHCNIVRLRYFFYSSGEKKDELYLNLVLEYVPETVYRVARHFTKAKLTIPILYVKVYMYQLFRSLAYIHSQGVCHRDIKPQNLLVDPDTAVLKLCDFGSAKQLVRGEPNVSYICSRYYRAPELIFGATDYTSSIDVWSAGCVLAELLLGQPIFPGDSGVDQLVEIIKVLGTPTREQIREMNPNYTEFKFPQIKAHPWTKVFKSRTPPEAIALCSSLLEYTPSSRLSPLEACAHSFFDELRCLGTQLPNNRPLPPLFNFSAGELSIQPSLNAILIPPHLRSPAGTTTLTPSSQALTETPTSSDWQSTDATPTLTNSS
UniProt Q9BYB4: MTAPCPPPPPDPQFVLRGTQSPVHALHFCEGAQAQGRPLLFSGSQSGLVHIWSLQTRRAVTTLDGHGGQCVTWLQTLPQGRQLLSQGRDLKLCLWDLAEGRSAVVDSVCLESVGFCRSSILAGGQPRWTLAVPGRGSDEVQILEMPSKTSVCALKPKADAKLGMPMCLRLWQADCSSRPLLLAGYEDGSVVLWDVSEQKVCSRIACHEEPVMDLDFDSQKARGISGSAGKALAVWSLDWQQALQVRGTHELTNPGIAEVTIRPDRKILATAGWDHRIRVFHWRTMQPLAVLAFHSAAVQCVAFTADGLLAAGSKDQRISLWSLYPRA
UniProt Q9H4G4: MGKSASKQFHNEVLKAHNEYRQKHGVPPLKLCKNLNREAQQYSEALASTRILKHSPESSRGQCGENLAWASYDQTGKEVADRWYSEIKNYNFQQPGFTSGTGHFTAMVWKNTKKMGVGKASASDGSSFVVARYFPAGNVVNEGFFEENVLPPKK

Legend:
Assay in all cases: log2 fold change, soluble protein after heating vs DMSO (PISA); higher = thermal stabilisation; K562 cells, 10 uM, 30 min; active = over 0.2 and 3.5 SD of the protein, either way, in both replicates (recomputed)
IRAK-1-4 Inhibitor I = compound: C1COCCN1CCN2C3=CC=CC=C3N=C2NC(=O)C4=CC(=CC=C4)[N+](=O)[O-] [IRAK-1-4 Inhibitor I]
Summary of the method: (§1)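 K562 cells at 2×10^6 cells/mL were treated for 30 min with 10 μM compound, and aliquots were heated for 3 min over 48°C-58°C before pooling. Extraction used PBS with 0.5% NP-40 at 4°C, and soluble protein was the supernatant after 21,000xg for 90 min, measured by TMTpro 16plex LC-MS/MS with channel sums equalised. Thermal stability values, relative to control samples and from duplicates, are log2 fold changes.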

ibrutinib = compound: C=CC(=O)N1CCC[C@@H](n2nc(-c3ccc(Oc4ccccc4)cc3)c3c(N)ncnc32)C1 [ibrutinib]
Summary of the method: as §1

[1] = compound: CC(=O)c1cnc2ccc(-c3cc(Cl)c(O)c(Cl)c3)nc2c1N[C@H]1CC[C@H](CN(C)C)CC1
Summary of the method: as §1

ralimetinib = compound: CC(C)(C)Cn1c(N)nc2ccc(-c3[nH]c(C(C)(C)C)nc3-c3ccc(F)cc3)nc21 [ralimetinib]
Summary of the method: as §1

[2] = compound: CC(C)(O)CC(=O)NCCn1ccc2ncnc(Nc3ccc(Oc4cccc(C(F)(F)F)c4)c(Cl)c3)c21
Summary of the method: as §1

[3] = compound: CC(C)C1=C2N=C(C=C(N2N=C1)NCC3=CC=CC=C3)NCCCCCCN
Summary of the method: as §1

[4] = compound: CC(C)C[C@@H](C=O)NC(=O)[C@H](CC(C)C)NC(=O)[C@H](CC(C)C)NC(=O)OCc1ccccc1
Summary of the method: as §1

pinometostat = compound: CC(C)N(C[C@H]1O[C@@H](n2cnc3c(N)ncnc32)[C@H](O)[C@@H]1O)[C@H]1C[C@@H](CCc2nc3cc(C(C)(C)C)ccc3[nH]2)C1 [pinometostat]
Summary of the method: as §1

[5] = compound: CC1=C(C2=C(C=C1)C(=O)C3=CC=CC=C3N2CCCN)C
Summary of the method: as §1

[6] = compound: CC1=C(C=C(C=C1)NC(=O)C2=CC(=CC=C2)C(C)(C)C#N)NC3=CC4=C(C=C3)N=CN(C4=O)C
Summary of the method: as §1

[7] = compound: CC1=C(C=C(C=C1)NC(=O)C2=CC(=CC=C2)N(C)C)NC(=O)C3=CC=C(C=C3)O
Summary of the method: as §1

[8] = compound: CC1=CC=C(C=C1)SC2=C3C=C(SC3=CN=C2)C(=O)N
Summary of the method: as §1

[9] = compound: CC1=NC(=CC=C1)C2=C(N=C(N2)C(C)(C)C)C3=CC4=NC=CN=C4C=C3
Summary of the method: as §1

Nexturastat A = compound: CCCCN(Cc1ccc(C(=O)NO)cc1)C(=O)Nc1ccccc1 [Nexturastat A]
Summary of the method: as §1

vemurafenib = compound: CCCS(=O)(=O)Nc1ccc(F)c(C(=O)c2c[nH]c3ncc(-c4ccc(Cl)cc4)cc23)c1F [vemurafenib]
Summary of the method: as §1

[10] = compound: CCCS(=O)(=O)Nc1ccc(F)c(C(=O)c2c[nH]c3ncc(Cl)cc23)c1F
Summary of the method: as §1

[11] = compound: CCCc1cc(C)[nH]c(=O)c1CNC(=O)c1cc(-c2ccnc(N3CCN(C)CC3)c2)cc2c1cnn2C(C)C
Summary of the method: as §1

givinostat = compound: CCN(CC)Cc1ccc2cc(COC(=O)Nc3ccc(C(=O)NO)cc3)ccc2c1 [givinostat]
Summary of the method: as §1

barasertib = compound: CCN(CCCOc1ccc2c(Nc3cc(CC(=O)Nc4cccc(F)c4)[nH]n3)ncnc2c1)CCOP(=O)(O)O [barasertib]
Summary of the method: as §1

[12] = compound: CC1=C(C(CC(=O)N1)C2=CC=C(C=C2)C(F)(F)F)C(=O)NC3=C(C=C4C(=C3)C=NN4)F
Summary of the method: as §1

| Target | log2 fold change (IRAK-1-4 Inhibitor I) | log2 fold change (ibrutinib) | log2 fold change [1] | log2 fold change (ralimetinib) | log2 fold change [2] | log2 fold change [3] | log2 fold change [4] | log2 fold change (pinometostat) | log2 fold change [5] | log2 fold change [6] | log2 fold change [7] | log2 fold change [8] | log2 fold change [9] | log2 fold change (Nexturastat A) | log2 fold change (vemurafenib) | log2 fold change [10] | log2 fold change [11] | log2 fold change (givinostat) | log2 fold change (barasertib) | log2 fold change [12] |
| --- | --- | --- | --- | --- | --- | --- | --- | --- | --- | --- | --- | --- | --- | --- | --- | --- | --- | --- | --- | --- |
| GLUD2 (UniProt P49448) | inactive: 0.025 | inactive: 0.045 | inactive: 0.113 | inactive: 0 | inactive: 0.098 | inactive: -0.041 | inactive: 0.014 | inactive: -0.013 | inactive: 0.127 | inactive: 0.104 | inactive: 0.006 | inactive: -0.062 | inactive: -0.015 | inactive: -0.045 | inactive: 0.017 | inactive: 0.006 | inactive: 0.238 | inactive: -0.107 | inactive: 0.015 |  |
| GOLGA2 (UniProt Q08379) | inactive: 0.008 | inactive: -0.053 | inactive: 0.11 | inactive: 0.146 | inactive: 0.028 | inactive: -0.022 | inactive: 0.055 | inactive: 0.092 | inactive: -0.022 | inactive: -0.077 | inactive: 0.011 | inactive: -0.098 | inactive: -0.053 | inactive: 0.121 | inactive: 0.003 | inactive: -0.065 | inactive: 0.107 | inactive: 0.039 | inactive: 0.013 | inactive: -0.028 |
| GPATCH8 (UniProt Q9UKJ3) | inactive: -0.013 | inactive: -0.019 | inactive: -0.047 | inactive: 0.071 | inactive: 0.03 | inactive: 0.089 | inactive: -0.032 | inactive: 0.127 | inactive: -0.094 | inactive: -0.071 | inactive: -0.018 | inactive: -0.037 | inactive: -0.082 | inactive: -0.016 | inactive: -0.019 | inactive: 0.008 | inactive: -0.005 | inactive: 0.044 | inactive: 0.006 | inactive: -0.005 |
| GON7 (UniProt Q9BXV9) | inactive: -0.013 | inactive: -0.042 | inactive: -0.215 | inactive: -0.03 | inactive: 0.02 | inactive: 0.171 | inactive: -0.042 | inactive: 0.044 | inactive: 0.089 | inactive: 0.052 | inactive: -0.077 | inactive: 0 | inactive: 0.088 | inactive: 0.053 | inactive: 0.119 | inactive: -0.097 | inactive: 0.038 | inactive: 0.172 | inactive: 0.034 | inactive: 0.023 |
| GMPR (UniProt P36959) | inactive: 0.007 | inactive: 0.038 | inactive: 0.006 | inactive: -0.069 | inactive: -0.019 | inactive: -0.001 | inactive: -0.041 | inactive: -0.02 | inactive: -0.03 | inactive: -0.042 | inactive: -0.019 | inactive: 0.004 | inactive: 0.005 | inactive: -0.075 | inactive: -0.037 | inactive: 0.017 | inactive: -0.029 | inactive: -0.056 | inactive: -0.006 | inactive: -0.01 |
| GSK3A (UniProt P49840) | inactive: 0.099 | inactive: 0.011 | active: 0.303 | inactive: -0.061 | inactive: -0.107 | inactive: 0.011 | inactive: -0.022 | inactive: -0.031 | inactive: 0.022 | inactive: -0.025 | inactive: 0.009 | inactive: 0.197 | inactive: 0.021 | inactive: -0.094 | inactive: -0.023 | inactive: -0.003 | inactive: -0.039 | inactive: -0.053 | inactive: 0.014 |  |
| GNB1L (UniProt Q9BYB4) | inactive: 0.01 | inactive: 0.03 | inactive: -0.007 | inactive: -0.06 | inactive: -0.027 | inactive: 0.02 | inactive: 0.005 | inactive: -0.036 | inactive: 0.053 | inactive: 0.004 | inactive: -0.026 | inactive: 0.01 | inactive: 0.012 | inactive: -0.015 | inactive: -0.008 | inactive: -0.011 | inactive: -0.107 | inactive: -0.184 | inactive: 0.001 | inactive: 0.028 |
| GLIPR2 (UniProt Q9H4G4) | inactive: 0.038 | inactive: -0.047 | inactive: -0.01 | inactive: 0.04 | inactive: 0.06 | active: -0.35 | inactive: 0.012 | inactive: 0.03 | inactive: 0.061 | inactive: 0.156 | inactive: -0.152 | inactive: -0.054 | inactive: -0.032 | inactive: 0.062 | inactive: 0.092 | inactive: -0.014 | inactive: 0.028 | inactive: 0.009 | inactive: 0 |  |
